Experimental data from PMC7794386, “Mechanism of filament formation in UPA-promoted CARD8 and NLRP1 inflammasomes” (Nature Communications, 2021).
Results are given in words; binding and its absence hold for the method and conditions named. Where a sequence is shown, tags or fusion partners need not be part of it.

Key:
[1] = target: NLRP1^CARD (D1374-S1473, G1467C), MBP tag cleaved (human) (UniProt Q9C000); test: negative stain EM of filament formation; purified MBP-fused protein cleaved with 3C protease for 3 h at 37 °C at different concentrations (0.1 to 30 µM), then negatively stained with 1% uranyl formate and imaged; both purified
[2] = target: His-MBP-NLRP1^CARD (D1374-S1473, G1467C), uncleaved (human) (UniProt Q9C000); test: SEC; preparative SEC of amylose-purified His-MBP fusions (Superdex 200 for MBP-CARD, Superose 6 for MBP-UPA and MBP-NLRP1-CT); 25 mM Tris-HCl pH 7.5, 150 mM NaCl, 1 mM TCEP; both purified

B1: NLRP1^CARD (D1374-S1473, G1467C), MBP tag cleaved (domain or fragment, UniProt Q9C000-1 1374-1473)
chain: DAPQLLHFVDQYREQLIARVTSVEVVLDKLHGQVLSQEQYERVLAENTRPSQMRKLFSLSQSWDRKCKDGLYQALKETHPHLIMELWEKGSKKCLLPLSS
Question: B1 was tested. Which binding [1] did it give?
Answer: no binding (tested: 30 µM)

B2: His-MBP-NLRP1^CARD (D1374-S1473, G1467C), uncleaved (domain or fragment, UniProt Q9C000-1 1374-1473)
chain: B1 chain
Question: With B2 as the binder, how does the binding [2] read?
Answer: no binding
